The list shows a part of the results. Residues, ends and D or L forms follow the SMILES beside them. *: point of attachment. Cbz = O=C(OCc1ccccc1)*
Key:
Assay in all cases: log2 fold change, soluble protein after heating vs DMSO (PISA); higher = thermal stabilisation; K562 cells, 10 uM, 30 min; active = over 0.2 and 3.5 SD of the protein, either way, in both replicates (recomputed)
erlotinib = compound: C#Cc1cccc(Nc2ncnc3cc(OCCOC)c(OCCOC)cc23)c1 [erlotinib]
Summary of the method: (§1)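 K562 cells at 2×10^6 cells/mL were treated for 30 min with 10 μM compound, and aliquots were heated for 3 min over 48°C-58°C before pooling. Extraction used PBS with 0.5% NP-40 at 4°C, and soluble protein was the supernatant after 21,000xg for 90 min, measured by TMTpro 16plex LC-MS/MS with channel sums equalised. Thermal stability values, relative to control samples and from duplicates, are log2 fold changes.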

The chains behind the UniProt entries cited, without tags or fusion partners. Where a name states a change or a piece, a line headed by the entry shows the natural chain unless it says otherwise.
UniProt O75581: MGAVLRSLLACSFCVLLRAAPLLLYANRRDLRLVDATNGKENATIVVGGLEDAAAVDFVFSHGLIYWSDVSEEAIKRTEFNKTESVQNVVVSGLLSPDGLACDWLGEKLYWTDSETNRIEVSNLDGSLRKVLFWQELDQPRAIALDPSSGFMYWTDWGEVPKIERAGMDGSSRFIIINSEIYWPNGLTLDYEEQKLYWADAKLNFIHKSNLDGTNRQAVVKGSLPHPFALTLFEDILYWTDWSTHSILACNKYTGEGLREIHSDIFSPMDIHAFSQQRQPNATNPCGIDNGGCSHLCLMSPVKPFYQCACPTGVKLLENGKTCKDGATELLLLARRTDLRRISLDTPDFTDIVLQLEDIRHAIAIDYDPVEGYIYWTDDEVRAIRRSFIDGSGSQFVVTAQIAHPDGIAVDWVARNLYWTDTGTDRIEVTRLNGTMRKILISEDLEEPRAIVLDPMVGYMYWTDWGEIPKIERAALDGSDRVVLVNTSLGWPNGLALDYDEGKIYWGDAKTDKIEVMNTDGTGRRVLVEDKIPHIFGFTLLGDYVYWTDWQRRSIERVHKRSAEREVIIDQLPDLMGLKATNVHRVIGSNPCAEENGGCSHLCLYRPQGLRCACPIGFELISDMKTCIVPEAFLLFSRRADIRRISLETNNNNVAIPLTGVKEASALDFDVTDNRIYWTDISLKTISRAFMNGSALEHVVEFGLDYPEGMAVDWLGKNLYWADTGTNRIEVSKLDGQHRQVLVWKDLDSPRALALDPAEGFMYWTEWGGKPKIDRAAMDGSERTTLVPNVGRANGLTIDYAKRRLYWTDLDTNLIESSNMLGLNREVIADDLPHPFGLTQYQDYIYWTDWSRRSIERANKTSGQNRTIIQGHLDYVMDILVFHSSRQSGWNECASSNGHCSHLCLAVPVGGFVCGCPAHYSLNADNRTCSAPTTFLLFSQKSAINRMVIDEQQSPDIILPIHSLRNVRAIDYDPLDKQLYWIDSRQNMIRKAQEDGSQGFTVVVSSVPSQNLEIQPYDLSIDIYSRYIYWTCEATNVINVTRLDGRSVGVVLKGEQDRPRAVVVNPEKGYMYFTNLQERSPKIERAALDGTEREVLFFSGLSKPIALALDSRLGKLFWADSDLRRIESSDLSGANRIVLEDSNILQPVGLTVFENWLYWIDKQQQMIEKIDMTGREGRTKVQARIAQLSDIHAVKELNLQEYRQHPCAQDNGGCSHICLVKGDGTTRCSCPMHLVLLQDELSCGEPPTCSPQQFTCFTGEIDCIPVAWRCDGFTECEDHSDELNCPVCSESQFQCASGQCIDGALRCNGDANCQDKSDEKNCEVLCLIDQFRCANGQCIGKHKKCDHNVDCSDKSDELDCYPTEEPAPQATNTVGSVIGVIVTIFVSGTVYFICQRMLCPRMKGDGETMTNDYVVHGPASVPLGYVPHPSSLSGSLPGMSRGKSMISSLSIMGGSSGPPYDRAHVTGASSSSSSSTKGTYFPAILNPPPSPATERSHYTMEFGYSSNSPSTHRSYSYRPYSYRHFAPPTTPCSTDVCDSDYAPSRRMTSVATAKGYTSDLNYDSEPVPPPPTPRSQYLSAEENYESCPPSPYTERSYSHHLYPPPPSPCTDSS
UniProt P02545: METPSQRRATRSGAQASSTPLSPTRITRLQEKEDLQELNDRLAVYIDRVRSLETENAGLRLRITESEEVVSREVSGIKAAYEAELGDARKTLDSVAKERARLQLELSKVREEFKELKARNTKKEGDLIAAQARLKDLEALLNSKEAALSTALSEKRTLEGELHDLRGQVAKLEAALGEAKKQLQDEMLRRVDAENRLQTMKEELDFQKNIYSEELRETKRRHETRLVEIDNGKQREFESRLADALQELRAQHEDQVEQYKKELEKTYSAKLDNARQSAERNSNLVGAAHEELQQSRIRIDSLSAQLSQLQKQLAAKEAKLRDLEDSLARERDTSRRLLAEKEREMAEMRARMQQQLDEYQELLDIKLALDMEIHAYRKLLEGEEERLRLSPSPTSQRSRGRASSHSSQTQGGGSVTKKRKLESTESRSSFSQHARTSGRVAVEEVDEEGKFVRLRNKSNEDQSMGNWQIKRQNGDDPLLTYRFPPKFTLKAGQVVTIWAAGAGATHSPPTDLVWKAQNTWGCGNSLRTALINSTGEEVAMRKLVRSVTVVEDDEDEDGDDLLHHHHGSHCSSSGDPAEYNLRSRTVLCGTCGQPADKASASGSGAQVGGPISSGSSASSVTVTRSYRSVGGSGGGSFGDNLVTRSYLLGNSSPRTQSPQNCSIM
UniProt P13473: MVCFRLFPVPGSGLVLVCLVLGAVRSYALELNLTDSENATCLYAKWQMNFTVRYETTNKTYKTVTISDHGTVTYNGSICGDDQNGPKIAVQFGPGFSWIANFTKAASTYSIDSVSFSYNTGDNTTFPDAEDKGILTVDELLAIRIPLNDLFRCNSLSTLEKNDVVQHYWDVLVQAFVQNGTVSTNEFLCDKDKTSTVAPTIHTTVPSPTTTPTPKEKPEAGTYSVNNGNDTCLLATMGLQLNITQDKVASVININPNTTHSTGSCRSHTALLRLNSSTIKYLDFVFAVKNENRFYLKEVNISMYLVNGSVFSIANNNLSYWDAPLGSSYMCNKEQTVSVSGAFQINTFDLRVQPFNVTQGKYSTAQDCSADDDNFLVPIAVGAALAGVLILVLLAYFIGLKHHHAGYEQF
UniProt Q96PV6, whole entry, looked up: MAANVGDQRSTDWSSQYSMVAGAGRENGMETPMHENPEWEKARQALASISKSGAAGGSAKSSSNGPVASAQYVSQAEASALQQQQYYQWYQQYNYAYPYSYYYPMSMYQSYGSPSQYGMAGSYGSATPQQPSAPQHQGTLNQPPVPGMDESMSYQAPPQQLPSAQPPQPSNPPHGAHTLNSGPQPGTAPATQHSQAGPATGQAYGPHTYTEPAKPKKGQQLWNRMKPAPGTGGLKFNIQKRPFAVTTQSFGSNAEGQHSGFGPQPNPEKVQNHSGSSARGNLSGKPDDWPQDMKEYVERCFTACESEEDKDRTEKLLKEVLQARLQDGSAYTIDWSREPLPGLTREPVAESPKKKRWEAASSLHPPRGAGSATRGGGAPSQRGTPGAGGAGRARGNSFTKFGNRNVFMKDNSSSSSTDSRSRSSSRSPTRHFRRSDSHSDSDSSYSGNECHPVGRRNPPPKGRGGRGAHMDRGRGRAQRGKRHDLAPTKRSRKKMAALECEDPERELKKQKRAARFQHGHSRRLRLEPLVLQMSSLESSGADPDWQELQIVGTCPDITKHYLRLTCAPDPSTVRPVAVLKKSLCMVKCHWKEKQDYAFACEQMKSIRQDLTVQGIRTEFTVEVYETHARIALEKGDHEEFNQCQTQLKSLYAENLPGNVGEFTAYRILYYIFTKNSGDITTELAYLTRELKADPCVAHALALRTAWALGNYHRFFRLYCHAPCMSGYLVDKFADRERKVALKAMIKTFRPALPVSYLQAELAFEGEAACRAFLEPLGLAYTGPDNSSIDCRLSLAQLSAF
UniProt P02750: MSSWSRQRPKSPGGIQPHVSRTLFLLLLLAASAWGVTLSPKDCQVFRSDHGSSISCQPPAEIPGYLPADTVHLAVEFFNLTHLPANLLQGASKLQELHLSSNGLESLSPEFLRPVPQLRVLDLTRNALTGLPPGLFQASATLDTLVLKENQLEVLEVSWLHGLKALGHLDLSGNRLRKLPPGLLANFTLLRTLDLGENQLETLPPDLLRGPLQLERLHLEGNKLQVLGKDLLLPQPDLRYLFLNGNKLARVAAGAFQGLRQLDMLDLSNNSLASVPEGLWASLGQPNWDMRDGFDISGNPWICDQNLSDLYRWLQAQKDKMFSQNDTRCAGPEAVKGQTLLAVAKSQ
UniProt Q15334: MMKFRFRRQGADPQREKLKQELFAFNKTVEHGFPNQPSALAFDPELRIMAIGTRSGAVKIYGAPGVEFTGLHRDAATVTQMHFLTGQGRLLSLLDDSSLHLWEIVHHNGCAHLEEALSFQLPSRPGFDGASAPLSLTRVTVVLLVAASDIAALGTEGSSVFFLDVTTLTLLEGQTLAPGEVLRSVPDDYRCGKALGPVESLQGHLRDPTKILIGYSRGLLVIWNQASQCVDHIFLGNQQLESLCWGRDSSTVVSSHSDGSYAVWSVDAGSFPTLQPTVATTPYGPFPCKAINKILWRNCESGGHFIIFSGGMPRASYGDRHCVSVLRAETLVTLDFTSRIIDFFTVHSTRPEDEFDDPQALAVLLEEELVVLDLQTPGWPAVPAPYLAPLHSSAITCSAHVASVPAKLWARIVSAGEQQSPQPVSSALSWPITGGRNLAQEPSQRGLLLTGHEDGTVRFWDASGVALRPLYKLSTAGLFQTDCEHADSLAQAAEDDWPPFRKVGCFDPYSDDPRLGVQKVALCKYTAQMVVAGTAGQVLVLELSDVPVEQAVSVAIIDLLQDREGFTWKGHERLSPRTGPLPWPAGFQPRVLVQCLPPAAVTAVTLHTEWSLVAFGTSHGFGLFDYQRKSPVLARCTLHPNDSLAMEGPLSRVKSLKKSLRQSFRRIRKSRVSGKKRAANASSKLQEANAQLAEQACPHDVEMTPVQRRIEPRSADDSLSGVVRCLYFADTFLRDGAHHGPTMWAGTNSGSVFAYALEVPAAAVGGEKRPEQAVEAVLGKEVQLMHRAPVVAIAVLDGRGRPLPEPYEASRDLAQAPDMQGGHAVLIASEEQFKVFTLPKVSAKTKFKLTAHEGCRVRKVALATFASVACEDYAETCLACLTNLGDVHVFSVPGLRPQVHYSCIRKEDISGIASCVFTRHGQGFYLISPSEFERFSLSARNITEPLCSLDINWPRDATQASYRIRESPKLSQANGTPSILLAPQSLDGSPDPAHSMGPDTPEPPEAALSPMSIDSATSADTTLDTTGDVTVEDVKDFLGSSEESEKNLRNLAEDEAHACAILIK
UniProt O75197: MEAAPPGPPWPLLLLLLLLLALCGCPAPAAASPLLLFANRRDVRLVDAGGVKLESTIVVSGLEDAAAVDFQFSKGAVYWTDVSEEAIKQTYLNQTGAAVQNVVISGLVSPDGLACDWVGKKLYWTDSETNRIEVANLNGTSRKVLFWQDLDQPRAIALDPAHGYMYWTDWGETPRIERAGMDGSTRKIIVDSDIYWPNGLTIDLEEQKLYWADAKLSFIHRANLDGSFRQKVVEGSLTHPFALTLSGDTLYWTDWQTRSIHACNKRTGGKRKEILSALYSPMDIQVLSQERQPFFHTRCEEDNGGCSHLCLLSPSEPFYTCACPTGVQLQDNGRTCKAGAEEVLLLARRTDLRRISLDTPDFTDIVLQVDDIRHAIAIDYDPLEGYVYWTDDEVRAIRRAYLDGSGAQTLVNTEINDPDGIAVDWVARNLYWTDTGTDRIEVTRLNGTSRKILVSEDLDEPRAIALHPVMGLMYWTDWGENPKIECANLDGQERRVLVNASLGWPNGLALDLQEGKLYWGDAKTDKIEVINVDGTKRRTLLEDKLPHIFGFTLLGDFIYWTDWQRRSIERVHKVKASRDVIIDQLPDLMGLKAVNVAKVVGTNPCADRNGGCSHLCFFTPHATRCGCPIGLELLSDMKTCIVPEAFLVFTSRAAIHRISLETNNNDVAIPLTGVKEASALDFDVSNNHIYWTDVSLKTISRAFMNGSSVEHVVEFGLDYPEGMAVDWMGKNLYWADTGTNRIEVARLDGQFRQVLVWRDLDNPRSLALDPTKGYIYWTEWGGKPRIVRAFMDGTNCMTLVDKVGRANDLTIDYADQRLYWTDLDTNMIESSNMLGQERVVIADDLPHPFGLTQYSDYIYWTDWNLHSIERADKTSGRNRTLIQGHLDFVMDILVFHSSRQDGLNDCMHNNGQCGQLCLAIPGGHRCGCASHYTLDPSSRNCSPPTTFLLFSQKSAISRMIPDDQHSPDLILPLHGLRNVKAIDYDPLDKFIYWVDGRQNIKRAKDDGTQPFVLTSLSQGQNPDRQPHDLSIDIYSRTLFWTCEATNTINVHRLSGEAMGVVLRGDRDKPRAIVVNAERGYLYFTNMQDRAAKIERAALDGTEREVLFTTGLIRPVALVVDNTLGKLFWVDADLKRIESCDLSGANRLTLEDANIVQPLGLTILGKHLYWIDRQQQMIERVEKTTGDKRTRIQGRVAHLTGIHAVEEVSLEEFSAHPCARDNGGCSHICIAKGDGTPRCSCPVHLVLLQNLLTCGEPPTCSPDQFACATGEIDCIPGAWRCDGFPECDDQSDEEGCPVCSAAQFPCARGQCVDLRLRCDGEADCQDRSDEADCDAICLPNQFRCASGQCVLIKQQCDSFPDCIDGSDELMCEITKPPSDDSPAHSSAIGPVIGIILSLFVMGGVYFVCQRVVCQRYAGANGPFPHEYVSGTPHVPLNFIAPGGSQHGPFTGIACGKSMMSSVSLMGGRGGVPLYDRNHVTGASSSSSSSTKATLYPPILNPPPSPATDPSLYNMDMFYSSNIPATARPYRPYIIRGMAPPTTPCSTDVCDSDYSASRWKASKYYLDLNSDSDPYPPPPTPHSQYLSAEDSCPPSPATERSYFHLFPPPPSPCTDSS

[1] = compound: C/C(=N\NC(=O)C1=CC(=CC=C1)S(=O)(=O)N2CCOCC2)/C3=C(C=CC(=C3)Cl)O
Summary of the method: as §1

[2] = compound: C1=CC(=C(C=C1Cl)C2=NC3=NC=CN=C3C(=N2)NC4=CC=NC=C4)F
Summary of the method: as §1

[3] = compound: C1=CC(=CC=C1C2=NC3=C(N2)C=C(C=C3)C(=O)N)OC4=CC=C(C=C4)Cl
Summary of the method: as §1

[4] = compound: C1=CC2=C(C=CC(=C2)/C=C\3/C(=O)NC(=NCC4=CC=CS4)S3)N=C1
Summary of the method: as §1

[5] = compound: C1=CC2=NC=CN=C2C=C1/C=C/3\C(=O)NC(=O)S3
Summary of the method: as §1

[6] = compound: C1=CC=C(C=C1)C2=NC(=C(N2)C3=CC=NC=C3)C4=CC(=C(C=C4)Cl)O
Summary of the method: as §1

[7] = compound: C1=CC=C2C(=C1)C3=NNC4=CC=CC(=C43)C2=O
Summary of the method: as §1

[8] = compound: C1CCN(C1)C(=O)NC2=CC=CC(=C2)NC3=NC=C(C(=N3)NCCC4=CN=CN4)Br
Summary of the method: as §1

[9] = compound: C1CN(CCC1(CC2=CC=C(C=C2)Cl)N)C3=NC=NC4=C3C=CN4
Summary of the method: as §1

IRAK-1-4 Inhibitor I = compound: C1COCCN1CCN2C3=CC=CC=C3N=C2NC(=O)C4=CC(=CC=C4)[N+](=O)[O-] [IRAK-1-4 Inhibitor I]
Summary of the method: as §1

ibrutinib = compound: C=CC(=O)N1CCC[C@@H](n2nc(-c3ccc(Oc4ccccc4)cc3)c3c(N)ncnc32)C1 [ibrutinib]
Summary of the method: as §1

[10] = compound: CC(=O)c1cnc2ccc(-c3cc(Cl)c(O)c(Cl)c3)nc2c1N[C@H]1CC[C@H](CN(C)C)CC1
Summary of the method: as §1

ralimetinib = compound: CC(C)(C)Cn1c(N)nc2ccc(-c3[nH]c(C(C)(C)C)nc3-c3ccc(F)cc3)nc21 [ralimetinib]
Summary of the method: as §1

[11] = compound: CC(C)(O)CC(=O)NCCn1ccc2ncnc(Nc3ccc(Oc4cccc(C(F)(F)F)c4)c(Cl)c3)c21
Summary of the method: as §1

[12] = compound: CC(C)C1=C2N=C(C=C(N2N=C1)NCC3=CC=CC=C3)NCCCCCCN
Summary of the method: as §1

[13] = compound: CC(C)C[C@@H](C=O)NC(=O)[C@H](CC(C)C)NC(=O)[C@H](CC(C)C)NC(=O)OCc1ccccc1
Summary of the method: as §1

pinometostat = compound: CC(C)N(C[C@H]1O[C@@H](n2cnc3c(N)ncnc32)[C@H](O)[C@@H]1O)[C@H]1C[C@@H](CCc2nc3cc(C(C)(C)C)ccc3[nH]2)C1 [pinometostat]
Summary of the method: as §1

[14] = compound: CC1=C(C2=C(C=C1)C(=O)C3=CC=CC=C3N2CCCN)C
Summary of the method: as §1

[15] = compound: CC1=C(C(CC(=O)N1)C2=CC=C(C=C2)C(F)(F)F)C(=O)NC3=C(C=C4C(=C3)C=NN4)F
Summary of the method: as §1

Target | log2 fold change (erlotinib) | log2 fold change [1] | log2 fold change [2] | log2 fold change [3] | log2 fold change [4] | log2 fold change [5] | log2 fold change [6] | log2 fold change [7] | log2 fold change [8] | log2 fold change [9] | log2 fold change (IRAK-1-4 Inhibitor I) | log2 fold change (ibrutinib) | log2 fold change [10] | log2 fold change (ralimetinib) | log2 fold change [11] | log2 fold change [12] | log2 fold change [13] | log2 fold change (pinometostat) | log2 fold change [14] | log2 fold change [15]
LEO1 (UniProt Q8WVC0) | inactive: 0.132 | inactive: 0.108 | inactive: 0.194 | inactive: -0.079 | inactive: -0.006 | inactive: 0.007 | inactive: -0.035 | inactive: -0.039 | inactive: -0.076 | inactive: -0.045 | inactive: 0.134 | inactive: 0.026 | inactive: -0.027 | inactive: -0.031 | inactive: -0.044 | inactive: -0.016 | inactive: 0.068 | inactive: 0.019 | active: -0.394 | –
LMNB1 (UniProt P20700) | inactive: -0.06 | inactive: 0.071 | inactive: 0.001 | inactive: 0.029 | inactive: -0.073 | inactive: 0.064 | inactive: -0.07 | inactive: -0.151 | inactive: -0.079 | inactive: 0.001 | inactive: -0.004 | inactive: -0.03 | inactive: -0.22 | inactive: 0.015 | inactive: 0.091 | inactive: -0.048 | inactive: 0.031 | inactive: 0.011 | inactive: -0.082 | –
LPIN3 isoform 2 (UniProt Q9BQK8) | inactive: 0.053 | inactive: 0.062 | inactive: 0.038 | inactive: -0.045 | inactive: 0.108 | inactive: 0.022 | inactive: -0.048 | inactive: 0.022 | inactive: 0.002 | inactive: -0.014 | – | inactive: -0.041 | inactive: -0.164 | inactive: -0.024 | inactive: -0.14 | inactive: 0.027 | inactive: 0.073 | – | inactive: 0.099 | –
LIN37 (UniProt Q96GY3) | inactive: 0.428 | inactive: -0.516 | – | inactive: -0.204 | inactive: 0.153 | – | – | inactive: -0.005 | – | – | inactive: 0.005 | – | inactive: 0 | – | – | inactive: 0.411 | – | inactive: -0.034 | – | –
LRP6 (UniProt O75581) | inactive: 0.114 | inactive: -0.417 | – | inactive: 0.061 | inactive: 0.093 | inactive: -0.034 | – | inactive: 0.036 | inactive: -0.104 | inactive: 0.12 | inactive: -0.091 | inactive: 0.083 | inactive: 0 | – | – | inactive: 0.16 | – | inactive: -0.101 | inactive: 0.012 | –
LMNA (UniProt P02545) | inactive: -0.025 | inactive: 0.116 | inactive: 0.009 | inactive: -0.106 | inactive: -0.031 | inactive: 0.035 | inactive: -0.049 | inactive: -0.171 | inactive: -0.086 | inactive: 0.013 | inactive: 0.006 | inactive: -0.023 | inactive: -0.18 | inactive: -0.058 | inactive: 0.115 | inactive: 0.076 | inactive: 0 | inactive: -0.057 | inactive: -0.017 | –
LAMP2 isoform 2 (UniProt P13473) | inactive: -0.072 | inactive: 0.02 | inactive: 0.041 | inactive: 0.082 | inactive: -0.022 | inactive: 0.088 | – | inactive: -0.007 | inactive: 0.018 | inactive: 0.049 | inactive: 0.127 | inactive: -0.007 | inactive: 0.012 | – | inactive: 0.115 | active: -0.713 | – | inactive: -0.026 | inactive: -0.078 | –
LNPEP (UniProt Q9UIQ6) | inactive: -0.005 | inactive: -0.002 | inactive: 0.046 | inactive: 0.016 | inactive: 0.019 | inactive: 0.034 | inactive: 0.067 | inactive: -0.008 | inactive: -0.01 | inactive: 0.042 | inactive: 0.015 | inactive: 0.021 | inactive: -0.021 | inactive: 0.005 | inactive: -0.02 | inactive: 0.014 | inactive: 0 | inactive: -0.018 | inactive: 0.016 | –
LENG8 (UniProt Q96PV6) | inactive: -0.072 | inactive: 0.133 | inactive: 0.091 | inactive: 0.108 | inactive: -0.024 | inactive: -0.037 | inactive: -0.141 | inactive: 0.096 | inactive: 0.152 | inactive: -0.229 | inactive: -0.122 | inactive: 0 | inactive: -0.173 | inactive: -0.13 | inactive: -0.389 | active: -0.646 | inactive: 0.107 | inactive: -0.071 | inactive: 0.15 | –
KTN1 (UniProt Q86UP2) | inactive: -0.013 | inactive: -0.007 | inactive: -0.05 | inactive: -0.08 | inactive: 0.058 | inactive: -0.006 | inactive: -0.04 | inactive: -0.032 | inactive: -0.028 | inactive: -0.129 | inactive: -0.066 | inactive: -0.029 | inactive: 0.065 | inactive: 0.098 | inactive: 0 | active: -0.343 | inactive: 0.072 | inactive: 0.102 | inactive: 0.071 | –
LRG1 (UniProt P02750) | inactive: 0.053 | – | inactive: 0.306 | inactive: -0.425 | – | – | inactive: -0.074 | – | inactive: -0.108 | inactive: -0.028 | inactive: 0.016 | – | – | inactive: -0.301 | inactive: 0.291 | inactive: 0.069 | inactive: -0.075 | inactive: 0.015 | inactive: -0.182 | –
LPL (UniProt P06858) | inactive: 0.051 | inactive: -0.106 | – | inactive: -0.065 | inactive: -0.24 | – | – | inactive: -0.188 | inactive: -0.056 | inactive: -0.04 | inactive: -0.058 | – | inactive: 0 | – | – | inactive: 0.057 | – | inactive: 0.049 | inactive: 0.131 | –
LLGL1 (UniProt Q15334) | inactive: 0.011 | – | inactive: 0.172 | inactive: 0.046 | – | – | – | – | inactive: -0.135 | inactive: -0.008 | inactive: 0.025 | – | – | – | inactive: -0.155 | inactive: -0.021 | – | inactive: 0 | inactive: -0.116 | –
LPIN1 isoform 7 (UniProt Q14693) | inactive: 0.027 | inactive: 0.068 | inactive: 0.059 | inactive: -0.043 | inactive: -0.001 | inactive: -0.102 | inactive: -0.031 | inactive: 0.015 | inactive: -0.033 | inactive: 0.025 | inactive: 0.035 | inactive: 0.029 | active: -0.379 | inactive: 0.016 | inactive: -0.033 | inactive: -0.054 | inactive: 0.046 | inactive: 0.082 | inactive: 0.006 | –
LMNA isoform 2 (UniProt P02545) | – | – | – | – | – | – | – | – | inactive: -0.022 | inactive: 0.146 | – | – | – | – | – | – | – | – | inactive: -0.128 | –
LRP5 (UniProt O75197) | – | – | inactive: -0.148 | – | – | – | – | – | inactive: -0.049 | inactive: 0.095 | – | – | – | – | inactive: -0.12 | – | – | – | inactive: -0.208 | inactive: 0.086
LIG4 (UniProt P49917) | – | – | – | – | – | – | – | – | – | – | – | – | – | – | – | – | – | – | – | inactive: -0.4

Laid out differently: entries from further up.

| Target | log2 fold change (erlotinib) | log2 fold change [1] | log2 fold change [2] | log2 fold change [3] | log2 fold change [4] | log2 fold change [5] | log2 fold change [6] | log2 fold change [7] | log2 fold change [8] | log2 fold change [9] | log2 fold change (IRAK-1-4 Inhibitor I) | log2 fold change (ibrutinib) | log2 fold change [10] | log2 fold change (ralimetinib) | log2 fold change [11] | log2 fold change [12] | log2 fold change [13] | log2 fold change (pinometostat) | log2 fold change [14] | log2 fold change [15] |
| --- | --- | --- | --- | --- | --- | --- | --- | --- | --- | --- | --- | --- | --- | --- | --- | --- | --- | --- | --- | --- |
| LPL (UniProt P06858) | inactive: 0.051 | inactive: -0.106 | – | inactive: -0.065 | inactive: -0.24 | – | – | inactive: -0.188 | inactive: -0.056 | inactive: -0.04 | inactive: -0.058 | – | inactive: 0 | – | – | inactive: 0.057 | – | inactive: 0.049 | inactive: 0.131 | – |
| LLGL1 (UniProt Q15334) | inactive: 0.011 | – | inactive: 0.172 | inactive: 0.046 | – | – | – | – | inactive: -0.135 | inactive: -0.008 | inactive: 0.025 | – | – | – | inactive: -0.155 | inactive: -0.021 | – | inactive: 0 | inactive: -0.116 | – |
